Results deposited as PubChem BioAssay AID1508597 (Cure First, 2020).
This is one part, drawn at random, of about 2,100 reagents. 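Calls flag viability under 80% in either arm, not effects specific to rucaparib; the reference for percent is not stated.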 A number with no mark means an inactive call. Reagent sequences are not shown. Not stated in the record: the 100% reference.

Aim: 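Knock-downs altering ovarian cancer cell survival with or without PARP inhibitor rucaparib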 (primary screen)
Cell system: human ovarian carcinoma lines grown from tumours: OCI-P5x (papillary serous) and OCI-C5x (clear cell)
Knock-down reagent: siRNA pool against human genes, 1.25 pmol siRNA per well
Duration: 72 h or 96 h, depending on the cell culture
Treatment: rucaparib 20 µM (about IC30) or vehicle, present until read-out
Detection: 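ATP luminescence measured at 72 or 96 h according to the culture, then normalised and expressed as percent viability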
Scale: viability, normalised: higher = more viable cells remaining
Rule for the call: 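a well counts as a hit if its normalised viability is under 80 percent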
Calls: active = viability under 80%; inactive = viability 80% or more

| Gene | rucaparib or vehicle | cell line | technical replicate | viability, normalised (%) |
| --- | --- | --- | --- | --- |
| PRDM5 (GeneID 11107) | Rucaparib | OCI-C5x (clear cell) | 1 | 28.6 (active) |
| PRDM5 (GeneID 11107) | Rucaparib | OCI-C5x (clear cell) | 2 | 27.4 (active) |
| PRDM5 (GeneID 11107) | Rucaparib | OCI-C5x (clear cell) | 3 | 27 (active) |
| PRDM5 (GeneID 11107) | Rucaparib | OCI-P5x (serous) | 1 | 54.7 (active) |
| PRDM5 (GeneID 11107) | Rucaparib | OCI-P5x (serous) | 2 | 60.5 (active) |
| PRDM5 (GeneID 11107) | Rucaparib | OCI-P5x (serous) | 3 | 58.8 (active) |
| PRDM5 (GeneID 11107) | Vehicle | OCI-C5x (clear cell) | 1 | 35.5 (active) |
| PRDM5 (GeneID 11107) | Vehicle | OCI-C5x (clear cell) | 2 | 30.6 (active) |
| PRDM5 (GeneID 11107) | Vehicle | OCI-C5x (clear cell) | 3 | 31.3 (active) |
| PRDM5 (GeneID 11107) | Vehicle | OCI-P5x (serous) | 1 | 69.1 (active) |
| PRDM5 (GeneID 11107) | Vehicle | OCI-P5x (serous) | 2 | 76.3 (active) |
| PRDM5 (GeneID 11107) | Vehicle | OCI-P5x (serous) | 3 | 144 |
| MAP3K10 (GeneID 4294) | Rucaparib | OCI-C5x (clear cell) | 1 | 58.1 (active) |
| MAP3K10 (GeneID 4294) | Rucaparib | OCI-C5x (clear cell) | 2 | 52.8 (active) |
| MAP3K10 (GeneID 4294) | Rucaparib | OCI-C5x (clear cell) | 3 | 88.4 |
| MAP3K10 (GeneID 4294) | Rucaparib | OCI-P5x (serous) | 1 | 107 |
| MAP3K10 (GeneID 4294) | Rucaparib | OCI-P5x (serous) | 2 | 107 |
| MAP3K10 (GeneID 4294) | Rucaparib | OCI-P5x (serous) | 3 | 120 |
| MAP3K10 (GeneID 4294) | Vehicle | OCI-C5x (clear cell) | 1 | 74.4 (active) |
| MAP3K10 (GeneID 4294) | Vehicle | OCI-C5x (clear cell) | 2 | 49 (active) |
| MAP3K10 (GeneID 4294) | Vehicle | OCI-C5x (clear cell) | 3 | 52.6 (active) |
| MAP3K10 (GeneID 4294) | Vehicle | OCI-P5x (serous) | 1 | 109 |
| MAP3K10 (GeneID 4294) | Vehicle | OCI-P5x (serous) | 2 | 91.3 |
| MAP3K10 (GeneID 4294) | Vehicle | OCI-P5x (serous) | 3 | 104 |
| GDE1 (GeneID 51573) | Rucaparib | OCI-C5x (clear cell) | 1 | 43 (active) |
| GDE1 (GeneID 51573) | Rucaparib | OCI-C5x (clear cell) | 2 | 43.9 (active) |
| GDE1 (GeneID 51573) | Rucaparib | OCI-C5x (clear cell) | 3 | 29.6 (active) |
| GDE1 (GeneID 51573) | Rucaparib | OCI-P5x (serous) | 1 | 56.6 (active) |
| GDE1 (GeneID 51573) | Rucaparib | OCI-P5x (serous) | 2 | 61.6 (active) |
| GDE1 (GeneID 51573) | Rucaparib | OCI-P5x (serous) | 3 | 66.1 (active) |
| GDE1 (GeneID 51573) | Vehicle | OCI-C5x (clear cell) | 1 | 39.3 (active) |
| GDE1 (GeneID 51573) | Vehicle | OCI-C5x (clear cell) | 2 | 41.1 (active) |
| GDE1 (GeneID 51573) | Vehicle | OCI-C5x (clear cell) | 3 | 40 (active) |
| GDE1 (GeneID 51573) | Vehicle | OCI-P5x (serous) | 1 | 59.4 (active) |
| GDE1 (GeneID 51573) | Vehicle | OCI-P5x (serous) | 2 | 68.7 (active) |
| GDE1 (GeneID 51573) | Vehicle | OCI-P5x (serous) | 3 | 62.3 (active) |
| ACE (GeneID 1636) | Rucaparib | OCI-C5x (clear cell) | 1 | 30.3 (active) |
| ACE (GeneID 1636) | Rucaparib | OCI-C5x (clear cell) | 2 | 52.2 (active) |
| ACE (GeneID 1636) | Rucaparib | OCI-C5x (clear cell) | 3 | 44 (active) |
| ACE (GeneID 1636) | Rucaparib | OCI-P5x (serous) | 1 | 41.2 (active) |
| ACE (GeneID 1636) | Rucaparib | OCI-P5x (serous) | 2 | 59.3 (active) |
| ACE (GeneID 1636) | Rucaparib | OCI-P5x (serous) | 3 | 29.8 (active) |
| ACE (GeneID 1636) | Vehicle | OCI-C5x (clear cell) | 1 | 60.4 (active) |
| ACE (GeneID 1636) | Vehicle | OCI-C5x (clear cell) | 2 | 57.2 (active) |
| ACE (GeneID 1636) | Vehicle | OCI-C5x (clear cell) | 3 | 44.6 (active) |
| ACE (GeneID 1636) | Vehicle | OCI-P5x (serous) | 1 | 48.2 (active) |
| ACE (GeneID 1636) | Vehicle | OCI-P5x (serous) | 2 | 51.5 (active) |
| ACE (GeneID 1636) | Vehicle | OCI-P5x (serous) | 3 | 46.5 (active) |
| EPB41L5 (GeneID 57669) | Rucaparib | OCI-C5x (clear cell) | 1 | 58.1 (active) |
| EPB41L5 (GeneID 57669) | Rucaparib | OCI-C5x (clear cell) | 2 | 48.3 (active) |
| EPB41L5 (GeneID 57669) | Rucaparib | OCI-C5x (clear cell) | 3 | 44.4 (active) |
| EPB41L5 (GeneID 57669) | Rucaparib | OCI-P5x (serous) | 1 | 58.1 (active) |
| EPB41L5 (GeneID 57669) | Rucaparib | OCI-P5x (serous) | 2 | 59.1 (active) |
| EPB41L5 (GeneID 57669) | Rucaparib | OCI-P5x (serous) | 3 | 65.9 (active) |
| EPB41L5 (GeneID 57669) | Vehicle | OCI-C5x (clear cell) | 1 | 52.3 (active) |
| EPB41L5 (GeneID 57669) | Vehicle | OCI-C5x (clear cell) | 2 | 57.4 (active) |
| EPB41L5 (GeneID 57669) | Vehicle | OCI-C5x (clear cell) | 3 | 64.3 (active) |
| EPB41L5 (GeneID 57669) | Vehicle | OCI-P5x (serous) | 1 | 59.3 (active) |
| EPB41L5 (GeneID 57669) | Vehicle | OCI-P5x (serous) | 2 | 68.4 (active) |
| EPB41L5 (GeneID 57669) | Vehicle | OCI-P5x (serous) | 3 | 71.9 (active) |
